Source: patent publication US20230033582A1, “POLYMERIC NANOPARTICLES FOR ENHANCED CANCER TREATMENT” (THE QUEEN'S UNIVERSITY OF BELFAST, priority 2019, published 2023)
For at least one compound, name, drawing or mass did not settle the structure.

Tested on: MC38 cells
Assay: Flow cytometry of SIINFEKL presentation on MHC I (SIINFEKL-bound MHC antibody) in MC38 cells
Format: cell-based
Details: FIG. 10; MC38 cells pre-treated with Entinostat and Decitabine 24 hours, then OVA-NPs (250 μg/mL) for 6 hours
Description: FIG. 8: illustrate the results of Gemcitabine enhances SIINFEKL presentation: MC38 cells were pretreated with 30 nm Gemcitabine for 24 hours. Then, cells were treated with 1 μM SIINFEKL peptide for 6 hours. After 6 hours, cells were stained with PE-SIINFEKL-bound MHC antibody to determine the levels of SIINFEKL presentation. Presentation of SIINFEKL was enhanced after pre-treatment with Gemcitabine highlighting the potential of boosting CD8+ T cell recognition of tumour cells through combining the nanoformulation with Gemcitabine; […]
FIG. 10: illustrate the results of Epigenetic modifying agents (EMAs) enhance the presentation of Ovalbumin-derived SIINFEKL encapsulated within nanoparticles: MC38 cells were pre-treated with Entinostat and Decitabine. […] Cells were stained with SIINFEKL-bound MHC antibody and the surface presentation of SIINFEKL was determined by flow cytometry. […]
MC38 cells were seeded at 5×10^4 in 6 well plates and left overnight to adhere in 2 mL of the appropriate growth medium. […] The surface expression of SIINFEKL was determined by flow cytometry.
MC38 cells were seeded at 5×10^4 in 6 well plates and left overnight to adhere in 2 mL of the appropriate growth medium. […] Next, presentation of the SIINFEKL peptide was assessed by flow cytometry. […]

Nc1ncn([C@H]2C[C@H](O)[C@@H](CO)O2)c(=O)n1 [Decitabine]
SIINFEKL presentation after pre-treatment, both agents in combination: enhanced
